From the supplement of paper PMC12462457
Counter-ions that a name gives are not always drawn. ± gives the standard deviation of the averaged measurements. Some of the results follow. Single values are uncertain here, since repeats match poorly.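 Cell counts came from imaging DAPI-stained nuclei, excluding as dead any cells lacking phalloidin-stained cytoplasm. Counts per well were normalized to the median vehicle-well count on that plate, and the values were averaged over two replicate plates.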

Test system: OVCAR8
Assay: cell count relative to DMSO vehicle (fold change); higher = more surviving senescent cells (less killing)
Conditions: senescence inducer: cisplatin 10 µM 48 h, then 6 d recovery (CP senescent), exposure time 24 h

| Compound | cell count (compound dose 1 µM) | cell count (compound dose 5 µM) |
| --- | --- | --- |
| CC(C)(C)c1ccc(S(=O)(=O)/C=C/C#N)cc1 | 0.87 ± 0.11 | 0.233 ± 0.098 |
| COc1ccc2cc(C(C)C(=O)Oc3ccc(C(N)=S)cc3)ccc2c1 (centres undefined) | 1.15 ± 0.16 | 1.26 ± 0.061 |
| COc1ccc(-c2nc(-c3cc(C(F)(F)F)cc(C(F)(F)F)c3)n(Cc3ccc(C(N)=O)cc3)c2-c2ccc(OC)cc2)cc1 [Apoptozole] | 0.853 ± 0.0014 | 0.694 ± 0.17 |
| Cc1ccc2ccc(C(Nc3ccccc3)c3ccccc3)c(O)c2n1 (centres undefined) | 1.07 ± 0.19 | 1.2 ± 0.21 |
| C[C@H]1[C@H](C)CC[C@]2(C(=O)O[C@@H]3O[C@H](CO[C@@H]4O[C@H](CO)[C@@H](O[C@@H]5O[C@H](C)[C@H](O)[C@@H](O)[C@H]5O)[C@H](O)[C@H]4O)[C@@H](O)[C@H](O)[C@H]3O)CC[C@]3(C)C(=CC[C@@H]4[C@@]5(C)C[C@@H](O)[C@H](O)[C@@](C)(CO)[C@@H]5CC[C@]43C)[C@H]12 [Asiaticoside] | 1.14 ± 0.12 | 1.18 ± 0.056 |
| CCOC(=O)[C@@H](N)CCC(=O)N[C@@H](CSCc1ccccc1)C(=O)N[C@@H](C(=O)OCC)c1ccccc1 [Ezatiostat] | 1.27 ± 0.06 | 1.173 ± 0.0042 |
| Cn1cc(/C=C2\C(=O)Nc3cccnc32)c2ccccc21 | 1.2 ± 0.18 | 1.44 ± 0.2 |
| Cc1sc2c(c1C)C(c1ccc(Cl)cc1)=N[C@@H](CC(=O)NCCCCCCCCNC(=O)COc1cccc3c1C(=O)N(C1CCC(=O)NC1=O)C3=O)c1nnc(C)n1-2 (some centres undefined) | 0.761 ± 0.086 | 0.667 ± 0.13 |
| CC(=O)N[C@@H](C)C(=O)N[C@@H](CO)C(=O)NC(C)(C)C(=O)N[C@@H](CC(C)C)C(=O)N[C@@H](CCCN=C(N)N)C(=O)N[C@@H](CCCCN)C(=O)N[C@@H](CC(C)C)C(=O)NC(C)(C)C(=O)N[C@@H](CCCCN)C(=O)N[C@@H](CCCN=C(N)N)C(=O)N[C@@H](CC(C)C)C(=O)N[C@@H](CC(C)C)C(N)=O | 1.33 ± 0.037 | 0.578 ± 0.088 |
| CCC[C@H](N[C@H]1CCc2cc(F)cc(F)c2C1)C(=O)Nc1cn(C(C)(C)CNCC(C)(C)C)cn1 [Nirogacestat] | 0.914 ± 0.088 | 0.8065 ± 0.0078 |
| CN1C(=O)C(Cc2c[nH]c3ccccc23)NC1=S (centres undefined) [Necrostatin-1] | 1.36 ± 0.15 | 1.18 ± 0.073 |
| Cc1cc2c(s1)Nc1ccccc1N=C2N1CCN(C)CC1 | 1.16 ± 0.13 | 0.569 ± 0.35 |
| CCN(CC)CCOc1ccc(Nc2ncc3cc(-c4c(Cl)cccc4Cl)c(=O)n(C)c3n2)cc1 | 0.097 ± 0.033 | 0.132 ± 0.012 |
| COc1c(/C=C/C(=O)c2ccc(O)c(CC=C(C)C)c2)ccc(O)c1O [Licochalcone D] | 1.04 ± 0.016 | 0.669 ± 0.038 |
| Nc1ccc(-c2ccc3ncc4ccc(=O)n(-c5cccc(C(F)(F)F)c5)c4c3c2)cn1 [Torin 2] | 0.291 ± 0.032 | 0.291 ± 0.024 |
| CC(C)C[C@H](NC(=O)[C@H](Cc1ccccc1)C[C@@H](O)[C@H](Cc1ccccc1)NC(=O)OC(C)(C)C)C(=O)N[C@@H](Cc1ccccc1)C(N)=O | 1.15 ± 0.063 | 0.846 ± 0.095 |

| Compound | cell count (compound dose 1 µM) | cell count (compound dose 5 µM) |
| --- | --- | --- |
| CC[C@H](CC#N)OC(=O)N[C@@H](C)c1cccc(NC(=O)Nc2ccc(-c3cnco3)c(OC)c2)c1 | 0.845 ± 0.17 | 0.86 ± 0.15 |
| CN1CCC(Nc2nc(Nc3ccc(Oc4ccccc4)cc3)c3c(=O)[nH]cc(Br)c3n2)CC1 | 1.24 ± 0.15 | 0.0455 ± 0.036 |
| CC(=O)O[C@H]1C(=O)[C@@]2(C)[C@H]([C@H](OC(=O)c3ccccc3)[C@]3(O)C[C@H](OC(=O)[C@H](O)[C@@H](NC(=O)c4ccccc4)c4ccccc4)C(C)=C1C3(C)C)[C@]1(OC(C)=O)CO[C@@H]1C[C@@H]2O | 0.761 ± 0.039 | 0.633 ± 0.18 |
| COc1cccc2c1C(=O)c1c(O)c3c(c(O)c1C2=O)C[C@@](O)(C(=O)CO)C[C@@H]3O[C@H]1C[C@H](N)[C@@H](O)[C@H](C)O1 [Epirubicin (hydrochloride)] | 0.634 ± 0.18 | 0.523 ± 0.023 |
| O=[N+]([O-])c1ccc(Nc2ccccc2-c2ccccc2)c2nonc12 | 0.955 ± 0.09 | 0.857 ± 0.14 |
| COc1ccc2[nH]c3c(-c4cccc5ccccc45)nccc3c2c1 | 0.712 ± 0.018 | 0.63 ± 0.0071 |
| O=C(N[C@H]1CCc2cc(F)cc(F)c2NC1=O)c1n[nH]c(Cc2ccccc2)n1 | 1.29 ± 0.14 | 1.009 ± 0.0042 |
| N#Cc1c(N2CCCC2)nc(N)c2c(N)nc(N3CCCC3)cc12 | 0.987 ± 0.094 | 0.915 ± 0.045 |
| COC(=O)CC[C@H](NC(=O)[C@H](Cc1c[nH]c2ccccc12)NC(=O)OCc1ccccc1)C(=O)N[C@@H](Cc1cnc[nH]1)C(=O)N[C@@H](CC(=O)OC)C(=O)CF | 1.13 ± 0.026 | 0.851 ± 0.073 |
| Oc1ccc(-c2nc(-c3ccc(F)cc3)c(-c3ccncc3)[nH]2)cc1 | 1.11 ± 0.098 | 1.01 ± 0.16 |
| CC(C)CN(CC(=O)N1CCN(CC(OCc2ccc3ccccc3c2)c2ccc(Cl)cc2Cl)CC1)CC(C)C (centres undefined) [LYN-1604 (dihydrochloride)] | 1.2 ± 0.078 | 0.948 ± 0.29 |
| O=C(O)CCCCC(CCSCc1ccccc1)SCc1ccccc1 (centres undefined) [Devimistat] | 1.14 ± 0.11 | 0.865 ± 0.16 |
| O=C(O)C1=CO[C@@H](O[C@@H]2O[C@H](CO)[C@@H](O)[C@H](O)[C@H]2O)[C@@H]2C(CO)=CC[C@H]12 [Geniposidic acid] | 0.995 ± 0.15 | 1.04 ± 0.03 |
| O=C(CCCCCCC(=O)Nc1ccc(CN[C@H](C(=O)OC2CCCC2)c2ccccc2)cc1)NO [Tefinostat] | 0.963 ± 0.096 | 0.453 ± 0.14 |
| CCCCCNC(=N)N/N=C/c1c[nH]c2ccc(OC)cc12 | 0.752 ± 0.042 | 0.831 ± 0.013 |
| COc1c(C)c2c(c(O)c1C/C=C(\C)CCC(=O)O)C(=O)OC2 | 1.18 ± 0.29 | 0.715 ± 0.38 |

Arranged by number of heavy atoms (high to low): part of the list above

| Compound | cell count (compound dose 1 µM) | cell count (compound dose 5 µM) |
| --- | --- | --- |
| CC(C)CN(CC(=O)N1CCN(CC(OCc2ccc3ccccc3c2)c2ccc(Cl)cc2Cl)CC1)CC(C)C (centres undefined) [LYN-1604 (dihydrochloride)] | 1.2 ± 0.078 | 0.948 ± 0.29 |
| COc1ccc2[nH]c3c(-c4cccc5ccccc45)nccc3c2c1 | 0.712 ± 0.018 | 0.63 ± 0.0071 |
| CCCCCNC(=N)N/N=C/c1c[nH]c2ccc(OC)cc12 | 0.752 ± 0.042 | 0.831 ± 0.013 |
